The assay concerns the target T1, human recombinant soluble CD73 protein (human) (UniProt P21589).
T1 sequence: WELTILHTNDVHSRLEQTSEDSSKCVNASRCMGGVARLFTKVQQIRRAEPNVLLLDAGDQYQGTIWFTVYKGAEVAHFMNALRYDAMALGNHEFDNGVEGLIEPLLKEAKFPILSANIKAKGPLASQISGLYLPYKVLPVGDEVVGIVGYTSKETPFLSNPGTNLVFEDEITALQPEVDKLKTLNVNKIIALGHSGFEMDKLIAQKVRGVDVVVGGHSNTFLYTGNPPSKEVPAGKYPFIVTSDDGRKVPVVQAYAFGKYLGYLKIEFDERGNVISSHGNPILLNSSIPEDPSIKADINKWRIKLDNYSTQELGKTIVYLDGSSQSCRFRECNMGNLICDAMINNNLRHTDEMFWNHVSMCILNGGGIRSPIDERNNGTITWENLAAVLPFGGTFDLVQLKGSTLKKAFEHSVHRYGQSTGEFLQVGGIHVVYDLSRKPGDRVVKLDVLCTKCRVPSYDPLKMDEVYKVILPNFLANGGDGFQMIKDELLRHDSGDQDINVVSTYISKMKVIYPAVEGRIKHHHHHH
Briefly: SPR. On the technique in general: SPR reads the build-up and loss of mass on a sensor chip optically.

Results are given in words; binding and its absence hold for the method and conditions named. Some results given as binding are weak or reduced against the parent protein; the word gives no strength.

B1: H2L0 (antibody, human IgG1, V domains shown)
VH: QIQLVQSGAEVKKPGASVKVSCKASGYAFTSYNMYWVRQAPGQSLEWMGYIDPYNGGSSYNLTFKGRVTITVDKSASTAYMELSSLRSEDTAVYYCARGYGNYKAWFAYWGQGTLVTVSS
VL: DIQMTQSPSSLSASVGDRVTITCKASQSVSNDVAWYQQKPGKAPKLLIYYASTRYTGVPSRFSGSGSGTDFTFTISSLQPEDIATYYCQQDYSSLTFGQGTKLEIK
For the molecule B1, the binding result was “binds”.

For the origin of these results see US20220041744A1.
